This passage reports binding results from article PMC9240020.

Chains of the proteins cited; added tags and fusions are not shown.
UniProt P04147: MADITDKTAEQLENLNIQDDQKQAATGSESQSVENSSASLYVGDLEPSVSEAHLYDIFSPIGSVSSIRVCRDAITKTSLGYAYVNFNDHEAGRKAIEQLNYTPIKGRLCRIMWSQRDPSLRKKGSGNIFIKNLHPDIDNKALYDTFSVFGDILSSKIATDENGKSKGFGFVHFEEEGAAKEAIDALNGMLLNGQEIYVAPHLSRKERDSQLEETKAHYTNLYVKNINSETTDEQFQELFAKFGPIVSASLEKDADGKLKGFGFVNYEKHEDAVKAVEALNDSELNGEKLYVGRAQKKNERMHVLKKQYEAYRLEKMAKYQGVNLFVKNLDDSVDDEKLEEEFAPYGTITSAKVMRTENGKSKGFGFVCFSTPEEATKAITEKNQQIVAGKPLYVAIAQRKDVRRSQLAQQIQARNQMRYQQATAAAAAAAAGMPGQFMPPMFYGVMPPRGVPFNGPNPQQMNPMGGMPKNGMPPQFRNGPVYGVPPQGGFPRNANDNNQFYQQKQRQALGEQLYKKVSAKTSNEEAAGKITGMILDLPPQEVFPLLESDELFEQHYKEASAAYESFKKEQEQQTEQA

No constants are given. Whether binding was seen depends on the method and setting. Binding seen in cells or lysates may run through a third protein. Some results given as binding are weak or reduced against the parent protein; the word gives no strength. Sequences can lack the tags named with a protein.

In experiment [1] the target is Pab1 (poly(A)-binding protein) (S. cerevisiae (endogenous in BY4741 background)) (UniProt P04147). Nature of the experiment: proximity ligation; in situ PLA on fixed, Zymolyase-digested yeast cells with antibodies against Pab1 and Flag; cells not treated with 2-DG.
The target is the same in experiment [2]. Nature of the experiment: proximity ligation; in situ PLA on fixed, Zymolyase-digested yeast cells with antibodies against Pab1 and Flag; cells treated with 400 mM 2-DG for 2 h.

B1: Lsm7-5xFlag (protein, UniProt P53905 1-115)
chain: MHQQHSKSENKPQQQRKKFEGPKREAILDLAKYKDSKIRVKLMGGKLVIGVLKGYDQLMNLVLDDTVEYMSNPDDENNTELISKNARKLGLTVIRGTILVSLSSAEGSDVLYMQK
On to B1, for which the binding entry in experiment [1] is listed as “no binding (condition: without 2-DG treatment)”; in experiment [2], “binds”.
